In paper PMC10269511:
These are yes or no findings as the source states them, for the method shown. In cells and extracts the contact can be indirect. Some results given as binding are weak or reduced against the parent protein; the word gives no strength.

Molecular target: T1, ASC (mouse, endogenous in J774A.1 macrophages) (mouse (endogenous in J774A.1)) (UniProt Q9EPB4)
T1 sequence: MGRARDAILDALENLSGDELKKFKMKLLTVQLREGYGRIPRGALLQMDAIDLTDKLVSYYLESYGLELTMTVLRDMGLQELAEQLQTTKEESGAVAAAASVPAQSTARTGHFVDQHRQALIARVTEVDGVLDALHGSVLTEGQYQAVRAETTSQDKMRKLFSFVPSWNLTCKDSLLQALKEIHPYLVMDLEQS
Assay: co-IP

B1: AIM2 (absent in melanoma 2; mouse, endogenous in J774A.1 macrophages) (protein, UniProt Q91VJ1 1-354)
chain: MESEYREMLLLTGLDHITEEELKRFKYFALTEFQIARSTLDVADRTELADHLIQSAGAASAVTKAINIFQKLNYMHIANALEEKKKEAERKLMTNTKKRGTQKVENRSQAENCSAASATRSDNDFKEQAATEVCPQAKPQKKQMVAEQEAIREDLQKDPLVVTVLKAINPFECETQEGRQEIFHATVATETDFFFVKVLNAQFKDKFIPKRTIKISNYLWHSNFMEVTSSSVVVDVESNHEVPNNVVKRARETPRISKLKIQPCGTIVNGLFKVQKITEEKDRVLYGIHDKTGTMEVLVLGNPSKTKCEEGDKIRLTFFEVSKNGVKIQLKSGPCSFFKVIKAAKPKTDMKSVE
In the case of B1, the binding is reported as “binds”.
